Experimental data as given in patent US20240336615A1, “CYCLOPROPYL-(HETERO)ARYL-SUBSTITUTED ETHYL-SULFOXIME-PYRIDINE DERIVATIVES” (Boehringer Ingelheim Vetmedica GmbH, priority 2023, published 2024).
Some of these results come from one statement about several compounds together. At least one structure is not confirmed: it was looked up by name or label, or the drawing left a doubt.

How the values were obtained:
Myzus persicae = test: Insecticidal test on Myzus persicae (Example 17); type: in vivo; settings: 50 ppm, foliar application on Chinese cabbage, 6 days after application
Description: The compounds of formula (I), (Ia) and/or (Ib) of the present invention or salts thereof are separately dispersed in water and diluted to 500 ppm and 50 ppm. Chinese cabbage plants are planted in plastic pots (diameter: 8 cm, height: 8 cm). Aphids (Myzus persicae) are propagated on the plants and then the number of surviving aphids is counted. The dispersion is applied to the foliage of the potted plants. After the plants are air dried, these are kept in a greenhouse. 6 days after the application, the number of the alive insects is counted on the plants. The control rate is calculated according to the following formula and the control efficacy is evaluated according to the following criteria. [formula] • Ta: the number of alive insects before the foliar application in a treated plot • T: the number of alive insects after the foliar application in a treated plot • Ca: the number of alive insects before the foliar application in an untreated plot • C: the number of alive insects after the foliar application in an untreated plot • A: the control rate is 100% • B: the control rate is 90 to 99% • C: the control rate is 80 to 89% • D: the control rate is 50 to 79%

Plutella xylostella = test: Insecticidal test on Plutella xylostella (Example 15); type: in vivo; settings: Chinese cabbage seedling dip, 6 days after dip treatment
Procedure: The compounds of formula (I), (Ia) and/or (Ib) of the present invention or salts thereof are separately dispersed in water and diluted to 500 ppm and 50 ppm. Ten adults of Plutella xylostella are released onto Chinese cabbage seedlings and allowed to lay eggs thereon. 2 days after the release of the adults, the seedling is dipped in the dispersion for about 30 seconds. After air dried, the seedling is kept in a room at 25° C. 6 days after the dip treatment, the numbers of the dead and alive insects are counted. The corrected mortality rate is calculated according to the following formula and the insecticidal activity is evaluated according to the following criteria.

[1] = test system: adult R. sanguineus ticks; test: Contact activity against adult Rhipicephalus sanguineus (Example 5); settings: coated vials, 48 hours post-treatment, read-out: EC50 (contact activity, percentage mortality)
Procedure: Compounds of formulae (I), (Ia) and/or (Ib) formulated in 100% DMSO are diluted in a solution containing acetone and Triton X-100 (0.02%). The resulting formulation is used to coat the inner walls of glass scintillation vials and the filter paper covering the cap of the vial. Once dried, ten adult R. sanguineus ticks are added to the vials. The vials are incubated at 24° C., 95% relative humidity, and 12 hours of light/12 hours of dark until evaluation. Ticks are visually evaluated for mortality at 48 hours post-treatment. Compound efficacy at a given dose is expressed as percentage mortality. A dose response series is implemented to determine EC50 values.

[2] = test system: adult Ctenocephalides felis fleas; test: Contact activity against adult Ctenocephalides felis (Example 4); settings: adult C. felis, coated pipe cleaner in vial, 72 hours post-treatment; read-out: EC50 (contact activity, percentage mortality)
Procedure: Compounds of formulae (I), (Ia) and/or (Ib) dissolved in 100% DMSO are diluted in acetone to a desired concentration. The resulting formulation is used to coat the fibers of a 0.5-inch-long piece of pipe cleaner placed in a glass scintillation vial. The vial is capped with a rubber gasket and filter paper insert. After the acetone has evaporated, ten adult Ctenocephalides felis fleas are added to each vial. The vials are then incubated at 22° C., 80% relative humidity, and 12 hours of light/12 hours of dark until a visual evaluation for mortality is performed at 72 hours post-treatment. Compound efficacy at a given dose is expressed as percentage mortality and adjusted to remove background mortality observed in control vials containing DMSO only. A dose response series of treated vials is implemented to determine EC50 values.

Laodelphax striatellus = test: Insecticidal test on Laodelphax striatellus (Example 16); type: in vivo; settings: 50 ppm, rice seedling dip, 3rd-instar nymphs, 8 days after inoculation
Procedure: The compounds of formula (I), (Ia) and/or (Ib) of the present invention or salts thereof are separately dispersed in water and diluted to 500 ppm and 50 ppm. Rice plant seedlings are dipped in the dispersion for about 30 seconds. After air dried, the seedlings are put into a separate glass test tube and inoculated with ten 3rd-instar nymphs of Laodelphax striatellus and then the glass test tube is kept in a room at 25° C. 8 days after the inoculation, the numbers of the dead and alive insects are counted. The corrected mortality rate is calculated according to the following formula and the insecticidal activity is evaluated according to the following criteria.

adult C. felis fleas [3] = test: Ingestion activity against adult Ctenocephalides felis, membrane feeding, motility (Example 6); settings: bovine blood via artificial membrane, 48h post treatment, read-out: EC50 (ingestion activity, % motility reduction)
Procedure: Compounds of formulae (I), (Ia) and/or (Ib) dissolved in 100% DMSO are added to bovine blood and offered via an artificial membrane feeding system to adult C. felis fleas. The motility of fleas is then visually inspected 48h post treatment. Efficacy is expressed in % motility reduction compared to controls containing blood treated with DMSO only. A dose response series is implemented to determine EC50 values.

adult C. felis fleas [4] = test: Ingestion activity against adult Ctenocephalides felis, membrane feeding, alternative method (Examples 7 and 13); settings: bovine blood with sodium heparin, 48 hours post-treatment, read-out: EC50 (ingestion activity, percentage mortality, alternative method)
Procedure: Selected compounds of formula (I), (Ia) and (Ib) and compound “125” of WO 2021/033141 dissolved in 100% DMSO are diluted in bovine blood with sodium heparin anti-coagulant. The resulting formulation is offered via an artificial membrane feeding system to approximately 15 adult C. felis fleas previously dispensed into 24-well plates. The plates are then incubated in a double-chambered device. Visual evaluation for mortality is performed at 48 hours post-treatment. Compound efficacy at a given dose is expressed as percentage mortality and determined by normalization to positive and negative controls. A dose response series is implemented to determine EC50 values.
Compounds of formulae (I), (Ia) and/or (Ib) dissolved in 100% DMSO are diluted in bovine blood with sodium heparin anti-coagulant. The resulting formulation is offered via an artificial membrane feeding system to approximately 15 adult C. felis fleas previously dispensed into 24-well plates. The plates are then incubated in a double-chambered device. Visual evaluation for mortality is performed at 48 hours post-treatment. Compound efficacy at a given dose is expressed as percentage mortality and determined by normalization to positive and negative controls. A dose response series is implemented to determine EC50 values.

A. aegypti L1 larvae = test: Activity against larvae of Aedes aegypti (Example 3); settings: 48 h at 27° C., read-out: EC50 (percentage of mortality, larvae)
Procedure: Eight A. aegypti L1 larvae in a total volume of 64 μL water are added to 384-well microplates containing compounds of formulae (I), (Ia) and/or (Ib) formulated in 100% DMSO. The plates are incubated for 48 h at 27° C. Individual well images are acquired and analyzed using a pipeline to quantitatively assess the amount of larvae biomass accumulating at the bottom of the well. The efficacy of a compound at a given dose is expressed as “percentage of mortality” and determined by comparison to average biomass descriptors of positive and negative control wells containing 1.0 μM Fipronil or DMSO only, respectively. Dose response assay are conducted to determine an EC50 value.

Row | SMILES | control efficacy level (control rate) (Myzus persicae) | activity level (corrected mortality rate) (Plutella xylostella; 50 ppm) | EC50 [1] | EC50 [2] | activity level (corrected mortality rate) (Laodelphax striatellus) | EC50 (adult C. felis fleas [3]) | EC50 (adult C. felis fleas [4]) | EC50 (A. aegypti L1 larvae) | activity level (corrected mortality rate) (Plutella xylostella; 500 ppm)
1 | CC[S@](=N)(=O)c1cc(-c2noc(C3CC3)n2)cnc1-c1nc2cc(C(F)(F)C(F)(F)F)cnc2n1C [Compound 7a, (S)-[5-(5-cyclopropyl-1,2,4-oxadiazol-3-yl)-2-[3-methyl-6-(1,1,2,2,2-pentafluoroethyl)-3H-imidazo[4,5-b]pyridin-2-yl]pyridin-3-yl](ethyl)imino-lambda6-sulfanone] | A (the control rate is 100%) | A (the corrected mortality rate is 100%) | < 10 µM | < 10 µM | A (the corrected mortality rate is 100%) | < 1 µM | < 1 µM | – | –
2 | CC[S@@](=N)(=O)c1cc(-c2noc(C3CC3)n2)cnc1-c1nc2cc(C(F)(F)C(F)(F)F)cnc2n1C [Compound 7b, (R)-[5-(5-cyclopropyl-1,2,4-oxadiazol-3-yl)-2-[3-methyl-6-(1,1,2,2,2-pentafluoroethyl)-3H-imidazo[4,5-b]pyridin-2-yl]pyridin-3-yl](ethyl)imino-lambda6-sulfanone] | A (the control rate is 100%) | A (the corrected mortality rate is 100%) | – | < 10 µM | A (the corrected mortality rate is 100%) | – | – | < 0.04 µM | –
3 | CC[SH](=N)(O)c1cc(-c2ccc(C3(C#N)CC3)cc2)cnc1-c1nc2cc(C(C)(F)F)cn(CC(F)F)c-2c1F [Compound 16a] | – | – | – | – | – | – | – | – | A (the corrected mortality rate is 100%)
